# Reference: US20060166941A1, “Treatment and/or prevention of non-viral epithelial damage” (Epistem Limited, priority 2003, published 2006)
# Values joined by “and” are separate entries in the source; they are usually repeats but may differ in a detail not shown here. Identical values can stand only once. Counter-ions that a name gives are not always drawn.
# Experiments:
# Parameters in all cases: species or system mice
# [1] = test system: clonogenic stem cells of the digestive epithelium; experiment: In vivo protection of intestinal epithelium clonogenic stem cells, chemotherapy drug damage, independent experiment 2
# Procedure: In Vivo Protection of Intestinal Epithelium Clonogenic Stem Cells—Chemotherapy Drug Damage—Independent Experiment 2.
# The data presented in Example 4 were expanded in the following study, in which the ability of foscarnet (phosphonoformic acid trisodium salt hexahydrate) to prevent cytotoxic damage to clonogenic stem cells of the digestive epithelium was investigated using the following experiment.
# The model of cytotoxic insult used was treatment with 2 doses of 5-Flurouracil 6 hours apart at 400 mg of 5-Fluorouracil/kilogram bodyweight. Such cytotoxic treatment provides a model of chemotherapy administered to patients undergoing treatment for cancer.
# 8 experimental groups, each of six mice, were established as set out below:
# Group 1: Received intra-peritoneal injection, containing 50 mg foscarnet/kilogram bodyweight, in sterile water, one hour prior to the first cytotoxic treatment. Received one further identical injection on each of the three days following cytotoxic treatment.
# Group 2: Received intra-peritoneal injection, containing 50 mg foscarnet/kilogram bodyweight, in sterile water, one hour prior to the first cytotoxic treatment.
# Group 3: Received intra-peritoneal injection, containing 50 mg foscarnet/kilogram bodyweight, in sterile water on each of the three days following cytotoxic treatment.
# Group 4: Received intra-peritoneal injection, containing 50 mg foscarnet/kilogram bodyweight, in sterile water, 5 minutes prior to the first cytotoxic treatment. Received one further identical injection on each of the three days following cytotoxic treatment.
# Group 5: Vehicle control. Received intra-peritoneal injection, of sterile water, one hour prior to the first cytotoxic treatment. Received one further identical injection on each of the days following cytotoxic treatment.
# Group 6: Vehicle control. Received intra-peritoneal injection, of sterile water, one hour prior to the first cytotoxic treatment.
# Group 7: Vehicle control. Received intra-peritoneal injection, of sterile water, on each of the three days following cytotoxic treatment.
# Group 8: Vehicle control. Received intra-peritoneal injection, of sterile water, 5 minutes prior to the first cytotoxic treatment. Received one further identical injection on each of the three days following cytotoxic treatment.
# (§1) On the fourth day after treatment the animals of each group were killed, and intestinal tissue harvested for histological analysis. Tissue sections were stained with haemotoxylin and eosin, and were analysed for the presence of regenerating intestinal crypts. Regenerating intestinal crypts are derived from one or more surviving clonogenic stem cells, whereas sterilised crypts (containing no surviving stem cells) disappear within two days of irradiation. The number of regenerating crypts per intestinal circumference was counted, and the mean crypt width measured. Scores for each animal were then corrected to account for the probability of preferentially scoring larger crypts according to the following equation: [formula]
# (§2) For each treatment a Protection Factor was calculated using the following equation: corrected crypts/circumference treated corrected crypts/circumference untreated (vehicle)
# [2] = test system: clonogenic stem cells of the digestive epithelium; experiment: In vivo protection of intestinal epithelium clonogenic stem cells, radiation damage, independent experiment 1 (regenerating crypts); conditions: day 4
# Excerpt: In Vivo Protection of Intestinal Epithelium Clonogenic Stem Cells—Radiation Damage Independent Experiment 1.
# (§3) The ability of foscarnet (phosphonoformic acid trisodium salt hexahydrate) to prevent radiological damage to clonogenic stem cells of the digestive epithelium was illustrated by the following experiment.
# (§4) The model of radiological insult used was treatment with 13 Gy X-ray whole body radiation at a dose rate of 0.7 Gy/minute. Such radiation treatment provides a model of radiotherapy administered to patients undergoing treatment for cancer.
# Four experimental groups, each of six mice, were established as set out below:
# (§5) Group 1: Received intra-peritoneal injection, containing 50 mg foscarnet/kilogram bodyweight, in sterile water, one hour prior to radiation treatment. Received one further identical injection on each of the three days following radiation treatment.
# Group 2: Received intra-peritoneal injection, containing 100 mg foscarnet/kilogram bodyweight, in sterile water, one hour prior to radiation treatment. Received one further identical injection on each of the three days following radiation treatment.
# (§6) Group 3: Vehicle control. Received intra-peritoneal injection, of sterile water, one hour prior to radiation treatment. Received one further identical injection on each of the three days following radiation treatment.
# Group 4: Untreated controls. Received neither injections nor exposure to radiation.
# as §1, §2
# [3] = test system: clonogenic stem cells of the digestive epithelium; experiment: In vivo protection of intestinal epithelium clonogenic stem cells, chemotherapy drug (5-Flurouracil) damage
# Procedure: In Vivo Protection of Intestinal Epithelium Clonogenic Stem Cells—Chemotherapy Drug Damage.
# The ability of foscarnet (phosphonoformic acid trisodium salt hexahydrate) to prevent cytotoxic damage to clonogenic stem cells of the digestive epithelium was illustrated by the following experiment.
# The model of cytotoxic insult used was treatment with 2 doses of 5-Flurouracil 6 hours apart at either 400 mg or 500 mg of 5-Fluorouracil/kilogram bodyweight. Such cytotoxic treatment provides a model of chemotherapy administered to patients undergoing treatment for cancer.
# Five experimental groups, each of five mice, were established as set out below:
# Group 1: Received intra-peritoneal injection, containing 50 mg foscarnet/kilogram bodyweight, in sterile water, one hour prior to the first cytotoxic treatment (400 mg 5-Flurouracil/kilogram bodyweight). Received one further identical injection on each of the three days following cytotoxic treatment. […]
# Group 3: Vehicle control. Received intra-peritoneal injection, of sterile water, one hour prior to both cytotoxic treatments (400 mg 5-Flurouracil/kilogram bodyweight). Received one further identical injection on each of the three days following cytotoxic treatment. […]
# as §1, §2
# [4] = test system: clonogenic stem cells of the digestive epithelium; experiment: In vivo protection of intestinal epithelium clonogenic stem cells, radiation damage, independent experiment 2; conditions: day 4
# Excerpt: In Vivo Protection of Intestinal Epithelium Clonogenic Stem Cells—Radiation Damage Independent Experiment 2.
# as §3, §4
# Three experimental groups, each of six mice, were established as set out below:
# as §5
# Group 2: Received intra-peritoneal injection, containing 25 mg foscarnet/kilogram bodyweight, in sterile water, one hour prior to radiation treatment. Received one further identical injection on each of the three days following radiation treatment.
# as §6, §1, §2
# [5] = 13Gy plus 50 mg foscarnet -1 hr, 1, 2, 3 day, group Average
# [6] = 13Gy plus 50 mg foscarnet -1 hr, 1, 2, 3 day, individual mice
structure (smiles),measurement,setting,value
"O=C(O)P(=O)(O)O [foscarnet, phosphonoformic acid trisodium salt hexahydrate]",crypt width,"[1]; 400 mg/kg 5FU x 2 6 hours apart plus 50 mg foscarnet/kg -5 minutes, D1, D2, D3, group Ave",33.68 um
same,crypt width,"[1]; 400 mg/kg 5FU x 2 6 hours apart plus 50 mg foscarnet/kg -5 minutes, D1, D2, D3, individual mice",32.18 um and 37.12 um and 32.92 um and 32.76 um and 31.60 um and 35.47 um
same,crypt width,"[1]; 400 mg/kg 5FU x 2 6 hours apart plus 50 mg foscarnet/kg -1 hr only, group Ave",33.71 um
same,crypt width,"[1]; 400 mg/kg 5FU x 2 6 hours apart plus 50 mg foscarnet/kg -1 hr only, individual mice",38.42 um and 31.11 um and 34.22 um and 34.21 um and 32.90 um and 31.39 um
same,crypt width,"[1]; 400 mg/kg 5FU x 2 6 hours apart plus 50 mg foscarnet/kg -1 hr, D1, D2, D3, group Ave",32.99 um
same,crypt width,"[1]; 400 mg/kg 5FU x 2 6 hours apart plus 50 mg foscarnet/kg -1 hr, D1, D2, D3, individual mice",33.83 um and 29.37 um and 33.63 um and 34.46 um and 34.13 um and 32.51 um
same,crypt width,"[1]; 400 mg/kg 5FU x 2 6 hours apart plus 50 mg foscarnet/kg D1, D2, D3, group Ave",31.34 um
same,crypt width,"[1]; 400 mg/kg 5FU x 2 6 hours apart plus 50 mg foscarnet/kg D1, D2, D3, individual mice",32.56 um and 28.88 um and 31.39 um and 33.06 um and 28.39 um and 33.74 um
same,crypt width,[2]; [5],50.9 um
same,crypt width,[2]; [6],52.3 um and 50.7 um and 52.1 um and 48.0 um and 51.4 um
same,crypt width,"[2]; 13Gy plus 100 mg foscarnet -1 hr, 1, 2, 3 day, group Average",50.3 um
same,crypt width,"[2]; 13Gy plus 100 mg foscarnet -1 hr, 1, 2, 3 day, individual mice",51.8 um and 51.6 um and 48.7 um and 51.4 um and 47.8 um
same,crypt width,"[3]; 50 mg foscarnet 1 hr prior to 1st dose of 5-Flurouracil (400 mg/kg x 2 6 hrs apart) and D1, D2, D3, group Average",30.93 um
same,crypt width,"[3]; 50 mg foscarnet 1 hr prior to 1st dose of 5-Flurouracil (400 mg/kg x 2 6 hrs apart) and D1, D2, D3, individual mice",32.47 um and 29.79 um and 29.81 um and 31.12 um and 31.44 um
same,crypt width,"[3]; 50 mg foscarnet 1 hr prior to both doses of 5-Flurouracil (400 mg/kg x 2 6 hrs apart) and D1, D2, D3, group Average",30.39 um
same,crypt width,"[3]; 50 mg foscarnet 1 hr prior to both doses of 5-Flurouracil (400 mg/kg x 2 6 hrs apart) and D1, D2, D3, individual mice",31.84 um and 29.66 um and 31.83 um and 28.80 um and 29.84 um
same,crypt width,"[3]; 50 mg foscarnet 1 hr prior to both doses of 5-Flurouracil (500 mg/kg x 2 6 hrs apart) and D1, D2, D3, group Average",29.46 um
same,crypt width,"[3]; 50 mg foscarnet 1 hr prior to both doses of 5-Flurouracil (500 mg/kg x 2 6 hrs apart) and D1, D2, D3, individual mice",28.66 um and 28.59 um and 31.53 um and 30.86 um and 27.67 um
same,crypt width,"[4]; 13Gy plus 25 mg foscarnet -1 hr, 1, 2, 3 day, group Average",57.4 um
same,crypt width,"[4]; 13Gy plus 25 mg foscarnet -1 hr, 1, 2, 3 day, individual mice",52.5 um and 59.2 um and 57.4 um and 60.7 um and 59.5 um and 55.1 um
same,crypt width,[4]; [5],54.7 um
same,crypt width,[4]; [6],52.0 um and 57.1 um and 55.6 um and 61.9 um and 51.1 um and 50.5 um
